The record followed here is ChEMBL document CHEMBL1759859, “Sargachromanols as inhibitors of Na+/K+ ATPase and isocitrate lyase” (Bioorg Med Chem Lett, 2011).

≈ marks a conversion by molar mass, not a printed value.

One test relates to Staphylococcus aureus. As to the kind of experiment: Antibacterial activity against Staphylococcus aureus ATCC 6538p after 24 hrs by broth dilution method. Type of test: functional. (In general: Dilution methods test growth across graded concentrations, often in twofold steps.)
The subject of the next test is Escherichia coli. As to the kind of experiment: Antibacterial activity against Escherichia coli ATCC 25922 after 24 hrs by broth dilution method. Type of test: functional. As to conditions: ATCC 25922, 24 h.

Regarding `CC1(C)S[C@@H]2[C@H](NC(=O)[C@H](N)c3ccccc3)C(=O)N2[C@H]1C(=O)O` [AMPICILLIN], the MIC in the test with Staphylococcus aureus came to 0.78 µg/mL (≈ 2.23 µM); in the test with Escherichia coli it was 3.12 µg/mL (≈ 8.93 µM).

For orientation: MIC means the lowest concentration that inhibits growth of the organism.
